Measured values: patent US20190185544A1, “COMPOSITIONS AND METHODS OF MODULATING ABETA PROTEIN” (University of South Florida, priority 2016, published 2019)
Results are given in words; binding and its absence hold for the method and conditions named. Binding seen in cells or lysates may run through a third protein. Some results given as binding are weak or reduced against the parent protein; the word gives no strength.

By UniProt entry, the sequences of proteins in these tests, tags left out. Residues count along the entry.
UniProt P05067, residues 18-770: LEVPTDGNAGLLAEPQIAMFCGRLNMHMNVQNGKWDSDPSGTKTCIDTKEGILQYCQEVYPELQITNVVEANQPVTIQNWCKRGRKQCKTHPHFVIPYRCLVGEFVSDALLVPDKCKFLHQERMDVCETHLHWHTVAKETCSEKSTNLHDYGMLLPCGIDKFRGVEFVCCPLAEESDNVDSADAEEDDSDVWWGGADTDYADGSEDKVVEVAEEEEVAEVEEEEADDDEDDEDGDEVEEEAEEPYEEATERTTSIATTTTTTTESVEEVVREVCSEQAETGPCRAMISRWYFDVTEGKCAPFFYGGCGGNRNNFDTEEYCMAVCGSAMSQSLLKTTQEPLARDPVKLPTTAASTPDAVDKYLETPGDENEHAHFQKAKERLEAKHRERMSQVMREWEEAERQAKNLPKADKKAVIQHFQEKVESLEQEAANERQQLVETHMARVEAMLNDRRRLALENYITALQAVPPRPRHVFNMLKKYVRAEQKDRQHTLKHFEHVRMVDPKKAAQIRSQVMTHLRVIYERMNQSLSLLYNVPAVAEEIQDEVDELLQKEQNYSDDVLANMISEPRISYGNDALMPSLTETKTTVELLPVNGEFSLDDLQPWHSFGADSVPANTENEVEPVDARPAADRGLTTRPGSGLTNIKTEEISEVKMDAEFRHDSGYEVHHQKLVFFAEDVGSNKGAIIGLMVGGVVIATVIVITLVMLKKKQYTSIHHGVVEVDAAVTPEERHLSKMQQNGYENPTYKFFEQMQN

What was measured:
[1] = target: APP in brain homogenates of TgAPPwt mice (UniProt P05067); test: co-IP from brain homogenates, WB
[2] = target: APP in brain homogenates of TgAPPwt mice (UniProt P05067); test: co-IP from brain homogenates with 6H3B5 or pN-APP, WB with 6E10 and mApoE

B1: endogenous apoE in brain homogenates of TgAPPwt mice (ligand, mouse, UniProt P08226 19-311, looked up)
chain: EGEPEVTDQLEWQSNQPWEQALNRFWDYLRWVQTLSDQVQEELQSSQVTQELTALMEDTMTEVKAYKKELEEQLGPVAEETRARLGKEVQAAQARLGADMEDLRNRLGQYRNEVHTMLGQSTEEIRARLSTHLRKMRKRLMRDAEDLQKRLAVYKAGAREGAERGVSAIRERLGPLVEQGRQRTANLGAGAAQPLRDRAQAFGDRIRGRLEEVGNQARDRLEEVREHMEEVRSKMEEQTQQIRLQAEIFQARLKGWFEPIVEDMHRQWANLMEKIQASVATNPIITPVAQENQ
[1]
  binding: binds
[2]
  binding: binds
